Taken from: PubChem BioAssay AID602196 (INSERM, 2012)

Test: 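Knock-downs that protect lung cancer cells from cisplatin or sensitise them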
Cell system: human A549 lung cancer cells
Reagents: siRNA pair against human genes
Duration: 48 h transfection before cisplatin; time from cisplatin to read-out not stated
Conditions: cisplatin at a dose killing half of control-siRNA cells; exact dose and duration not given
Measurement: 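Shift in cisplatin death relative to control siRNA, from -50 (all cells die) to +50 (no cells die); siRNAs harmful on their own scored 0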
Direction: two-siRNA summed score (-2 to +2): higher = both siRNAs protect from cisplatin killing; -2 means both sensitise; mean protection from cisplatin (shift in death) and protection from cisplatin (shift in death), siRNA C and protection from cisplatin (shift in death), siRNA D: higher = protection from cisplatin killing
Rule for the call: 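Each siRNA scores 0 if harmful alone by LDH or WST-1, otherwise +1 if it reduces and -1 if it increases cisplatin killing; a gene is active when both siRNAs agree (sum +2 or -2)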
Calls: active = both siRNAs shift cisplatin killing the same way; inactive = no consistent shift, or siRNA harmful alone
The deposit covers about 23,000 reagents; this is an unselected part. In the full data, 455 (2%) are marked active. 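Active includes both protection and sensitisation; some change values fall well beyond the stated -50 to +50 range.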 No sequences are given here. Not given: the amount of reagent.

gene symbol | two-siRNA summed score (-2 to +2) | mean protection from cisplatin (shift in death) (%) | protection from cisplatin (shift in death), siRNA C (%) | protection from cisplatin (shift in death), siRNA D (%) | call
NOL3 | -1 | -9.1 | -3.1 | -15.1 | inactive
OR1L1 | 1 | 8.6 | 25.7 | -8.6 | inactive
LOC440723 | 1 | 6.8 | 11.6 | 1.9 | inactive
LOC440601 | 0 | 7 | -2.9 | 17 | inactive
LOC340511 | 0 | 7.2 | 7.1 | 7.2 | inactive
LOC440787 | 0 | 7 | 5.4 | 8.6 | inactive
ARLN | 1 | 9.5 | -7.8 | 26.7 | inactive
DYNAP | 1 | 13 | 2.5 | 23.6 | inactive
PMVK | 0 | 1.3 | -0.6 | 3.1 | inactive
MAPK15 | 1 | 3.8 | -3 | 10.6 | inactive
PSMB9 | 0 | 10.8 | 13.4 | 8.3 | inactive
DRAIC | 1 | 13.9 | -2.7 | 30.5 | inactive
PGLS | 0 | -4.3 | -7.9 | -0.7 | inactive
ZBBX | 0 | -0.6 | -6 | 4.9 | inactive
TMEM38B | 0 | 4.9 | 3.5 | 6.3 | inactive
DAB2 | 0 | -18 | -36.3 | 0.3 | inactive
ARFIP1 | 0 | 9.4 | 8 | 10.9 | inactive
LOC441992 | 1 | 24.3 | 33.7 | 14.9 | inactive
FKBP15 | -1 | -15.6 | -18 | -13.2 | inactive
GSDMC | -1 | -11.9 | -16.9 | -6.8 | inactive
FAM230B | 0 | -0.9 | -4.2 | 2.3 | inactive
SPINK5 | 0 | 14.7 | 21.2 | 8.1 | inactive
ILKAP | 0 | -3.1 | 0.8 | -7.1 | inactive
TUBGCP6 | -1 | -1.2 | 16.7 | -19.1 | inactive
SGSM1 | 0 | 12.3 | 15.3 | 9.3 | inactive
NUTF2 | -1 | -7.2 | -10.5 | -3.9 | inactive
FAM225B | 0 | 12.3 | 14.4 | 10.2 | inactive
ZNF385B | -1 | -7.3 | -25 | 10.4 | inactive
GART | -1 | 2.4 | -11.9 | 16.7 | inactive
CC2D2B | 0 | 13.2 | 11.2 | 15.3 | inactive
CTAG1B | 0 | 18.9 | 31.6 | 6.2 | inactive
LOC439998 | 0 | 6.6 | 5 | 8.1 | inactive
LOC152877 | 0 | 11.8 | 14.6 | 9.1 | inactive
EPG5 | 0 | -14 | -15.6 | -12.4 | inactive
LOC440549 | 0 | 15.3 | 14.4 | 16.1 | inactive
RAB31 | 0 | 3.5 | 15.9 | -8.9 | inactive
MTG2 | 0 | -2.2 | 4.1 | -8.4 | inactive
GEMIN2 | -1 | -11.4 | -27.7 | 4.9 | inactive
FLJ43870 | 1 | 8.7 | -4.5 | 21.8 | inactive
LOC440222 | 2 | 18 | 12.4 | 23.5 | active
LRRC19 | 0 | 6.7 | 4.7 | 8.8 | inactive
SPRYD4 | 0 | -5 | 4.3 | -14.4 | inactive
APEX1 | 0 | -6.5 | -5.4 | -7.6 | inactive
PRKAA1 | 1 | 17.6 | 24.6 | 10.7 | inactive
FLT4 | 0 | 23.5 | 41.9 | 5.1 | inactive
EFS | 1 | 9.5 | 11 | 7.9 | inactive
NOMO2 | 0 | 11.1 | 7.7 | 14.5 | inactive
LOC345630 | 0 | 14.7 | 18 | 11.4 | inactive
NEK1 | 0 | 6.8 | -1.4 | 14.9 | inactive
LOC440124 | 0 | 13.8 | 16.2 | 11.4 | inactive
LINC01501 | 0 | 16.5 | 13.7 | 19.3 | inactive
LOC400403 | 0 | 5.6 | 12 | -0.8 | inactive
RHOQ | 0 | 4 | 12.5 | -4.5 | inactive
LOC441063 | 0 | 2.7 | -1 | 6.4 | inactive
GIN1 | 0 | 11.9 | 7.1 | 16.8 | inactive
FAM120AOS | 0 | -5.6 | -11.9 | 0.7 | inactive
UNC5CL | 0 | 5.5 | 6.6 | 4.5 | inactive
DPAGT1 | 0 | 17 | 10.7 | 23.2 | inactive
SLC23A3 | 0 | 3.7 | -3.1 | 10.5 | inactive
EIPR1 | 0 | -1 | -23.3 | 21.2 | inactive
CSAG2 | 0 | 0.3 | -7.3 | 7.9 | inactive
PRMT5 | 1 | 11.9 | 18.6 | 5.1 | inactive
TTLL7 | 0 | 3.1 | 6.5 | -0.4 | inactive
BPY2 | 0 | 5.7 | 21.3 | -9.8 | inactive
HSPA8 | 0 | -3.1 | -9.8 | 3.5 | inactive
ETV7 | 0 | -10.4 | -1 | -19.7 | inactive
FAM153A | 0 | 4.4 | 2.7 | 6 | inactive
EMX2 | 0 | 0.9 | -6.3 | 8.1 | inactive
BCORP1 | 1 | 6 | 2.1 | 9.9 | inactive
WDR64 | 0 | 16.6 | 19.6 | 13.7 | inactive
KRTAP6-2 | -1 | 1.3 | -14.3 | 16.8 | inactive
OR10V1 | 0 | 4.6 | -3.7 | 12.9 | inactive
CACHD1 | 0 | -1 | -8.2 | 6.2 | inactive

Entries listed so far whose gene name begins with Z or z:
gene symbol | two-siRNA summed score (-2 to +2) | mean protection from cisplatin (shift in death) (%) | protection from cisplatin (shift in death), siRNA C (%) | protection from cisplatin (shift in death), siRNA D (%) | call
ZBBX | 0 | -0.6 | -6 | 4.9 | inactive
ZNF385B | -1 | -7.3 | -25 | 10.4 | inactive
